The labels stand for the following.
B1: INADL-10 (domain or fragment, UniProt Q8NI35 1676-1762)
chain: TVEINRELSDALGISIAGGRGSPLGDIPVFIAMIQASGVAARTQKLKVGDRIVSINGQPLDGLSHADVVNLLKNAYGRIILQVVADT
B2: TJP3-2 (domain or fragment, UniProt O95049 195-272)
chain: SVLVKRRDSEEFGVKLGSQIFIKHITDSGLAARHRGLQEGDLILQINGVSSQNLSLNDTRRLIEKSEGKLSLLVLRDR
B3: NHERF3-4 (domain or fragment, UniProt Q5T2W1 378-458)
chain: LCRLAKGENGYGFHLNAIRGLPGSFIKEVQKGGPADLAGLEDEDVIIEVNGVNVLDEPYEKVVDRIQSSGKNVTLLVCGKK
B4: LNX1-3 (domain or fragment, UniProt Q8TBB1 507-593)
chain: VVNIQKDPGESLGMTVAGGASHREWDLPIYVISVEPGGVISRDGRIKTGDILLNVDGVELTEVSRSEAVALLKRTSSSIVLKALEVK
B5: TJP3-1 (domain or fragment, UniProt O95049 11-93)
chain: TATLSKDPRRGFGIAISGGRDRPGGSMVVSDVVPGGPAEGRLQTGDHIVMVNGVSMENATSAFAIQILKTCTKMANITVKRPR
B6: GRIP1-1 (domain or fragment, UniProt Q9Y3R0 53-136)
chain: VVELMKKEGTTLGLTVSGGIDKDGKPRVSNLRQGGIAARSDQLDVGDYIKAVNGINLAKFRHDEIISLLKNVGERVVLEVEYEL
B7: APBA2-1 (domain or fragment, UniProt Q99767 568-654)
chain: ELQLEKHKGEILGVVVVESGWGSILPTVILANMMNGGPAARSGKLSIGDQIMSINGTSLVGLPLATCQGIIKGLKNQTQVKLNIVSC
B8: USH1C-2 (domain or fragment, UniProt Q9Y6N9 211-293)
chain: KVFISLVGSRGLGCSISSGPIQKPGIFISHVKPGSLSAEVGLEIGDQIVEVNGVDFSNLDHKEAVNVLKSSRSLTISIVAAAG
B9: SDCBP2-2 (domain or fragment, UniProt Q9H190 192-267)
chain: TVTMHKDSMGHVGFVIKKGKIVSLVKGSSAARNGLLTNHYVCEVDGQNVIGLKDKKIMEILATAGNVVTLTIIPSV
B10: SDCBP-2 (domain or fragment, UniProt O00560 198-273)
chain: TITMHKDSTGHVGFIFKNGKITSIVKDSSAARNGLLTEHNICEINGQNVIGLKDSQIADILSTSGTVVTITIMPAF
B11: APBA1-1 (domain or fragment, UniProt Q02410 656-742)
chain: DVFIEKQKGEILGVVIVESGWGSILPTVIIANMMHGGPAEKSGKLNIGDQIMSINGTSLVGLPLSTCQSIIKGLKNQSRVKLNIVRC
B12: DFNB31-1 (domain or fragment, UniProt Q9P202 140-223)
chain: LVSLRRAKAHEGLGFSIRGGSEHGVGIYVSLVEPGSLAEKEGLRVGDQILRVNDKSLARVTHAEAVKALKGSKKLVLSVYSAGR
B13: PDZD2-6 (domain or fragment, UniProt O15018 2750-2835)
chain: CVEVLKTSAGLGLSLDGGKSSVTGDGPLVIKRVYKGGAAEQAGIIEAGDEILAINGKPLVGLMHFDAWNIMKSVPEGPVQLLIRKH
B14: NHERF3-3 (domain or fragment, UniProt Q5T2W1 243-323)
chain: IVEMKKGSNGYGFYLRAGSEQKGQIIKDIDSGSPAEEAGLKNNDLVVAVNGESVETLDHDSVVEMIRKGGDQTSLLVVDKE
B15: PDZRN3-1 (domain or fragment, UniProt Q9UPQ7 249-339)
chain: TLVLHRDSGSLGFNIIGGRPSVDNHDGSSSEGIFVSKIVDSGPAAKEGGLQIHDRIIEVNGRDLSRATHDQAVEAFKTAKEPIVVQVLRRT
B16: TJP3-3 (domain or fragment, UniProt O95049 380-446)
chain: DTRVVRFLKGKSIGLRLAGGNDVGIFVSGVQAGSPADGQGIQEGDQILQVNDVPFQNLTREEAVQFL
B17: TJP2-2 (domain or fragment, UniProt Q9UDY2 307-385)
chain: GVLLMKSRANEEYGLRLGSQIFVKEMTRTGLATKDGNLHEGDIILKINGTVTENMSLTDARKLIEKSRGKLQLVVLRDS
B18: PDZRN3-2 (domain or fragment, UniProt Q9UPQ7 419-503)
chain: EVDLYRMNSQDKLGLTVCYRTDDEDDIGIYISEIDPNSIAAKDGRIREGDRIIQINGIEVQNREEAVALLTSEENKNFSLLIARP
B19: INADL-7 (domain or fragment, UniProt Q8NI35 1239-1322)
chain: IIELEKDKNGLGLSLAGNKDRSRMSIFVVGINPEGPAAADGRMRIGDELLEINNQILYGRSHQNASAIIKTAPSKVKLVFIRNE
B20: TJP2-1 (domain or fragment, UniProt Q9UDY2 33-120)
chain: TVTLQKDSKRGFGIAVSGGRDNPHFENGETSIVISDVLPGGPADGLLQENDRVVMVNGTPMEDVLHSFAVQQLRKSGKVAAIVVKRPR
B21: SDCBP2-1 (domain or fragment, UniProt Q9H190 108-187)
chain: EIHLCKDERGKTGLRLRKVDQGLFVQLVQANTPASLVGLRFGDQLLQIDGRDCAGWSSHKAHQVVKKASGDKIVVVVRDR
B22: DLG3-2 (domain or fragment, UniProt Q92796 226-311)
chain: EVNLLKGPKGLGFSIAGGIGNQHIPGDNSIYITKIIEGGAAQKDGRLQIGDRLLAVNNTNLQDVRHEEAVASLKNTSDMVYLKVAK
B23: LNX1-1 (domain or fragment, UniProt Q8TBB1 274-359)
chain: SIKINRVDPSESLSIRLVGGSETPLVHIIIQHIYRDGVIARDGRLLPGDIILKVNGMDISNVPHNYAVRLLRQPCQVLWLTVMREQ
B24: USH1C-3 (domain or fragment, UniProt Q9Y6N9 452-537)
chain: DVRLLRIKKEGSLDLALEGGVDSPIGKVVVSAVYERGAAERHGGIVKGDEIMAINGKIVTDYTLAEAEAALQKAWNQGGDWIDLVV
B25: PDZD2-2 (domain or fragment, UniProt O15018 334-419)
chain: KMELLKESDGLGIQVSGGRGSKRSPHAIVVTQVKEGGAAHRDGRLSLGDELLVINGHLLVGLSHEEAVAILRSATGMVQLVVASKE

Amino acid sequences for entries named in this document (tags omitted). A change or cut given only in a name is not applied to a line headed by its entry.
UniProt P60484: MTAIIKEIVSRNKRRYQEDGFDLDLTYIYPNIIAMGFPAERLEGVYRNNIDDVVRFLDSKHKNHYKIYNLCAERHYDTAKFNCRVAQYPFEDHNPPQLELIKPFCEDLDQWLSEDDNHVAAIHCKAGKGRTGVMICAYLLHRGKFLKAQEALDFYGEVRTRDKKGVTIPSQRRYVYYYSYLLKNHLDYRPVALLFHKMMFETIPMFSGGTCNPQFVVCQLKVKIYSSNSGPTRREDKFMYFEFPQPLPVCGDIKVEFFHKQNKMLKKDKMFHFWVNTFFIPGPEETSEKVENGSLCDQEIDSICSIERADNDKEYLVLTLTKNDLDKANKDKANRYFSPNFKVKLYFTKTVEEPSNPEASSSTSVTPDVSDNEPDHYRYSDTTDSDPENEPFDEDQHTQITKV

These are yes or no findings as the source states them, for the method shown.

The target of the first experiment is PTEN_11 (human) (UniProt P60484). In words: holdup assay; biotinylated PBM peptide on streptavidin resin, biotin resin as reference; tag-PDZ at 4 uM in crude E. coli lysate, 15 min, filtrate read by capillary electrophoresis; singlicate; BI converted into KD with the mean peptide concentration back-calculated from FP (34, 28, 25, 17 uM); LogKD is -log10 of KD in M, overall uncertainty ± 0.12; cells at the column's lower value are pairs without detected binding; only the target purified.
For the molecule B1, the binding entry is given as “no binding (tested: lower value)”.
On the same count and under the same terms, the entry for B2 is “no binding (tested: lower value)”; for B3 it is “no binding (tested: lower value)”.
As for B4, the binding entry is “no binding (tested: lower value)”.
In the case of B5, the binding result is listed as “no binding (tested: lower value)”.
The same measure, in the same setting: the entry for B6 is “no binding (tested: lower value)”.

A further experiment concerns the target PTEN_Ac (human) (UniProt P60484). The experiment is described as above.
In the case of B7, the binding result was “no binding (tested: lower value)”.
In the case of B8, the binding entry is “no binding (tested: lower value)”.
Still for that read-out and setting: in the case of B9 it was “no binding (tested: lower value)”.
The same measure, in the same setting: in the case of B10 it was “no binding (tested: lower value)”.
For B2, the binding entry was “no binding (tested: lower value)”.
For the molecule B11, the binding entry was “no binding (tested: lower value)”.
On to B12, for which the binding result was “no binding (tested: lower value)”.
Regarding B13, the binding entry was “no binding (tested: lower value)”.
Same read-out and setting: in the case of B3 it was “no binding (tested: lower value)”.
Same read-out and setting: in the case of B14 it was “no binding (tested: lower value)”; in that of B15, “no binding (tested: lower value)”.
Same read-out and setting: in the case of B16 it was “no binding (tested: lower value)”; in that of B4, “no binding (tested: lower value)”; in that of B17, “no binding (tested: lower value)”.
On to B5, for which the binding entry is “no binding (tested: lower value)”.
The same measure, in the same setting: in the case of B18 it was “no binding (tested: lower value)”.

Another experiment has as its target PTEN_13 (human) (UniProt P60484). Described as above.
Turning to B7, the binding entry was “no binding (tested: lower value)”.
On the same count and under the same terms, the entry for B19 is “no binding (tested: lower value)”; for B1 it is “no binding (tested: lower value)”; for B20 it is “no binding (tested: lower value)”.
B21: the binding result was “no binding (tested: lower value)”.
On the same count and under the same terms, the entry for B8 is “no binding (tested: lower value)”; for B22 it is “no binding (tested: lower value)”; for B9 it is “no binding (tested: lower value)”.
The same measure, in the same setting: the entry for B23 is “no binding (tested: lower value)”.
With B10, the binding result was “no binding (tested: lower value)”.
Same read-out and setting: the entry for B2 is “no binding (tested: lower value)”; for B11 it is “no binding (tested: lower value)”; for B13 it is “no binding (tested: lower value)”.
Take B3: the binding result is reported as “no binding (tested: lower value)”.
For B24, the binding entry is reported as “no binding (tested: lower value)”.
On the same count and under the same terms, the entry for B14 is “no binding (tested: lower value)”; for B15 it is “no binding (tested: lower value)”; for B16 it is “no binding (tested: lower value)”.
Turning to B4, the binding entry is recorded as “no binding (tested: lower value)”.
On the same count and under the same terms, the entry for B5 is “no binding (tested: lower value)”; for B25 it is “no binding (tested: lower value)”; for B6 it is “no binding (tested: lower value)”.
The same measure, in the same setting: in the case of B18 it was “no binding (tested: lower value)”.

Another experiment concerns the target PTEN_KR (human) (UniProt P60484). Described as above.
As for B1, the binding entry is listed as “no binding (tested: lower value)”.
As for B20, the binding result was “no binding (tested: lower value)”.
Consider B8, for which the binding entry is recorded as “no binding (tested: lower value)”.
In the case of B10, the binding entry was “no binding (tested: lower value)”.
The same measure, in the same setting: the entry for B13 is “no binding (tested: lower value)”; for B24 it is “no binding (tested: lower value)”.
On the same count and under the same terms, in the case of B17 it was “no binding (tested: lower value)”; in that of B6, “no binding (tested: lower value)”.

The values are drawn from publication PMC7774954, “Interactomic affinity profiling by holdup assay: Acetylation and distal residues impact the PDZome-binding specificity of PTEN phosphatase” (PLoS ONE, 2020).
